Assay results published in article PMC9343251.
Results are given in words; binding and its absence hold for the method and conditions named. Binding seen in cells or lysates may run through a third protein. Some binding calls cover weakened binding; strength is not graded here.

Chains of the proteins cited; added tags and fusions are not shown.
UniProt P19634: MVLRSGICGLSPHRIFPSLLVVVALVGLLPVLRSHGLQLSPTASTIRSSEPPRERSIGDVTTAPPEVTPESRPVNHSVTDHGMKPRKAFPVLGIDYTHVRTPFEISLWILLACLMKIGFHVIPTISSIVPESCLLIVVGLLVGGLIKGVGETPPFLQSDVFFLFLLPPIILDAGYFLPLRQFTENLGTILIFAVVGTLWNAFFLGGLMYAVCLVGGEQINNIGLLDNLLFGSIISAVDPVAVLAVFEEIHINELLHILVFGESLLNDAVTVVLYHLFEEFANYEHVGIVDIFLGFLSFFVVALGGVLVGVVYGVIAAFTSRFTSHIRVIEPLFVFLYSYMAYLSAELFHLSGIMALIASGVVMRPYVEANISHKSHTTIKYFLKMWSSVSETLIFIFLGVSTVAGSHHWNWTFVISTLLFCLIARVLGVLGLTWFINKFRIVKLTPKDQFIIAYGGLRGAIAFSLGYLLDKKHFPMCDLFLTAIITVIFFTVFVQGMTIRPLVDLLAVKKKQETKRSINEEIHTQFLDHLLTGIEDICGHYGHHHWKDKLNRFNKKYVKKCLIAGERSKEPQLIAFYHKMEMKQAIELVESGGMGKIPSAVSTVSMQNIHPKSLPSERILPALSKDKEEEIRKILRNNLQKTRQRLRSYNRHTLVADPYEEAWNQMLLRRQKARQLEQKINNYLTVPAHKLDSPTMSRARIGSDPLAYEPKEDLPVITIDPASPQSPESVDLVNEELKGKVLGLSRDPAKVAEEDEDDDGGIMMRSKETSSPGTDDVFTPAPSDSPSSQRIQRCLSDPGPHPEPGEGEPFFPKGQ
UniProt Q06187: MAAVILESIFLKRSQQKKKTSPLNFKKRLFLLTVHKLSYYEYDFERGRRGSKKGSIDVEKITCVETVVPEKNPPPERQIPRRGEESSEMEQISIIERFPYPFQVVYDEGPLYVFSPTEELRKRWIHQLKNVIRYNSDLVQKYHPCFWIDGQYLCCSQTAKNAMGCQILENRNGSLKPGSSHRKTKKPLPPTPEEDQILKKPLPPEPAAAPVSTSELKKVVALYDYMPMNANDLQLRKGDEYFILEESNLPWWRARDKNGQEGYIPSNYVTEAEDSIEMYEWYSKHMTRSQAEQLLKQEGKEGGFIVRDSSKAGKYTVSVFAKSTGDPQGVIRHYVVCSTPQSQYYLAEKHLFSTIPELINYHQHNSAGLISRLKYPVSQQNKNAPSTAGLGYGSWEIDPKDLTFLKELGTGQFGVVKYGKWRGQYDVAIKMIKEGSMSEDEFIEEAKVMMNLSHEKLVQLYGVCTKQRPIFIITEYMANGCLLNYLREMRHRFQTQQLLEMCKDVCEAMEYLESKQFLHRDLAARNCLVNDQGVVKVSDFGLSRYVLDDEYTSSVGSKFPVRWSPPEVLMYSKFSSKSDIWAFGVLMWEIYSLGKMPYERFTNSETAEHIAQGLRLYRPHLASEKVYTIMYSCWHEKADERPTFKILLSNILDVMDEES

Target: sodium/hydrogen exchanger (NHE1) (human (endogenous in MV4-11)) (UniProt P19634)
Assay: co-IP; MV4-11 lysate in NP-40-based lysis buffer with protease and phosphatase inhibitors; 500 ug total protein with 2 ug anti-NHE1 or anti-FLT3 antibody at 4 °C overnight; Protein G sepharose 2 hours at 4 °C; western blot

binding: binds
Substance: BTK (from UniProt Q06187 1-659) (enzyme)
